# According to PubChem BioAssay AID2685 (National Center for Advancing Translational Sciences (NCATS), 2010):
# The other results are listed elsewhere or left out. These are further read-outs of the screen, such as a control signal, another cell line or another target. No call is given for them. Most of these compounds were active or inconclusive in the main read-out, so they are no random draw. Words in brackets tell the shape of the fitted curve; partial curves, single points and poor fits give uncertain potencies.
# Assay: qHTS Assay for Lipid Storage Modulators in Drosophila S3 Cells;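 for cell number change: cells counted by Cell Tracker Red CMTPX staining in the red channel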
# Details: BODIPY lipid droplet fluorescence, 18-24 h; for cell number change: measured here: cell count max response, cells fed with added oleic acid
# Method in brief: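 Drosophila S3 cells got compounds at several concentrations plus oleic acid (400 uM solution). Laser-scanning cytometry with 488 nm excitation read lipid droplets at 500-530 nm and cells at 575-640 nm. Percent activity was relative to 20 uM Triacsin C.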
# [1] = measured here: lipid fluorescence (Fed channel) AC50, cells fed with added oleic acid
# [2] = measured here: cell number channel AC50, cells fed with added oleic acid
SMILES,cell number change [%],AC50 [1],AC50 [2]
CCn1c(C(C)NC(=O)Cc2ccccc2)nc2ccccc21 (stereo unspecified),0.123,"29.1 µM [falling, single point]",–
Cc1ccc(NC(=O)CCC(=O)c2cccs2)c(O)c1,-3.7,"0.326 µM [falling, partial curve, poor fit]",–
C=CCn1cc(C(C)=O)c(=O)[nH]c1=O,3.13,–,"5.17 µM [falling, partial curve, poor fit]"
O=C(Cc1ccc(Cl)c(Cl)c1)Nc1cccnc1,15.5,–,–
CC(NC(=O)c1cccc(S(=O)(=O)N2CCCCCC2)c1)c1ccccc1 (stereo unspecified),-40.5,"0.82 µM [falling, full curve]","18.4 µM [falling, single point]"
COC(=O)c1ccc2[nH]c([C@H](C)O)c([C@H](C)O)c2c1,18.6,–,–
CSc1ccc(CCNC(=O)CCc2nnc3ccc(N4CCC5(CC4)OCCO5)nn23)cc1,-14.1,–,–
COc1ccc(C(=O)NC(=S)Nc2ccc(N3CCOCC3)c(Cl)c2)cc1[N+](=O)[O-],-24.6,"0.651 µM [falling, single point]",–
Cc1ccccc1C(=O)Nc1cccc(-c2cn3ccccc3n2)c1,-3.68,"0.0058 µM [falling, full curve, poor fit]",–
CCOc1cccc(CN2CCCC(C(=O)Nc3ccc(-c4ccn[nH]4)cc3)C2)c1O (stereo unspecified),-5.42,–,–
c1cncc(-c2nc(N3CCCCCC3)c3ccccc3n2)c1,-20.5,"7.31 µM [rising, partial curve]",–
Nc1n[nH]c2ccccc12,-4.77,"1.84 µM [falling, partial curve]",–
O=C(NNC(=O)C1CCN(Cc2ccc(Cl)c(Cl)c2)CC1)c1cccs1,-5.33,–,"0.00411 µM [falling, full curve, poor fit]"
CC(C)(C)OC(=O)N1Cc2cc3ccccc3nc2C1CO (stereo unspecified),-14.3,–,–
O=C(C[n+]1cccc(CNC(=O)c2ccc(OC(F)F)cc2)c1)Nc1cccc(C(F)(F)F)c1,25.2,–,"7.31 µM [rising, partial curve, poor fit]"
CCc1ccc(NC(=O)N(CCOC)C2CCN(C(C)=O)CC2)cc1,28.2,"4.11 µM [falling, partial curve]",–
COC(=O)c1scc(C#N)c1N/N=C(\C#N)S(=O)(=O)c1ccc(Cl)cc1,-15.6,–,–
COc1cccc(C(=O)N(Cc2ccccc2)Cc2cc3cc4c(cc3[nH]c2=O)OCCO4)c1,5.83,"29.1 µM [falling, single point]",–
COc1cccc(N2CCN(S(=O)(=O)c3ccc4c(c3)N(C(C)=O)CCO4)CC2)c1,-47.7,"23.1 µM [falling, single point]","14.6 µM [falling, single point]"
Cc1ccc2c(c1)/C(=C/c1ccccc1)C(=O)N2,-33.8,"23.1 µM [falling, single point]","29.1 µM [falling, single point]"
O=C(CCc1c[nH]c2ccccc12)NCCc1ccccc1,-11.4,"2.31 µM [rising, partial curve]",–

# Pulled one by one from above:
SMILES,cell number change [%],AC50 [1],AC50 [2]
COc1cccc(N2CCN(S(=O)(=O)c3ccc4c(c3)N(C(C)=O)CCO4)CC2)c1,-47.7,"23.1 µM [falling, single point]","14.6 µM [falling, single point]"
COC(=O)c1ccc2[nH]c([C@H](C)O)c([C@H](C)O)c2c1,18.6,–,–

# Later entries.

SMILES,cell number change [%],AC50 [1],AC50 [2]
CCSc1nnc(NC(=O)c2cccnc2)s1,-7.03,"29.1 µM [falling, single point]",–
O=C(NCCCN1CCOCC1)c1cc(-c2ccc(F)cc2)on1,-7.87,–,"3.66 µM [falling, partial curve]"
O=C(Nc1ccc2oc(-c3cccnc3)nc2c1)c1cc2ccccc2o1,-20,"0.103 µM [rising, full curve, poor fit]",–
CC(C)C(NC(=O)c1c(F)cccc1F)C(=O)NCc1ccc(S(=O)(=O)N2CCOCC2)cc1 (stereo unspecified),-3.37,–,–
COc1cccc(OC)c1OCCN1CCN(C(=O)c2ccco2)CC1,-0.75,"6.51 µM [rising, single point]",–
O=C(Nc1ccc(S(=O)(=O)NCc2ccccc2)cc1)C1CCCCC1,7.67,"29.1 µM [falling, single point]",–
NC(=O)c1ccsc1NC(=O)COC(=O)CNC(=O)c1cccc([N+](=O)[O-])c1,-6.33,"10.3 µM [falling, partial curve, poor fit]",–
O=C1C2CC=C(Cl)CC2C(=O)N1CCN1CCOCC1 (stereo unspecified),-4.23,"0.651 µM [falling, full curve]","0.0291 µM [falling, full curve, poor fit]"
COc1ccc(NC(C)=O)cc1S(=O)(=O)N(C)Cc1c(C)nn(-c2ccccc2)c1C,18.9,"14.6 µM [rising, partial curve, poor fit]",–
C=C(C)COc1ccc2oc(C)c(C(=O)OCCOC)c2c1,4.69,–,–
COc1ccc(C)cc1NC(=O)c1nnn(CCc2ccccc2)c1N,-9.67,"0.58 µM [falling, single point]",–
Cc1ccc(C)c(NC(=O)CCc2ccc(C)o2)c1,6.3,–,–
COc1ccc(OC)c(NC(=O)CC2SC(=Nc3ccccc3)N(CCc3ccccn3)C2=O)c1 (stereo unspecified),-14.8,"2.59 µM [rising, partial curve]","6.51 µM [falling, single point]"
CC(=O)c1cccc(NC(=S)NCCc2ccc(Cl)cc2)c1,29.9,–,–
CCC(NC(=O)OCc1ccccc1)C(=O)Oc1ccc2ccc(=O)oc2c1 (stereo unspecified),11.7,–,–
COc1ccc(CN2CC(=O)N3[C@H]4c5ccc(OC)cc5OC[C@@H]4[C@H](c4ccccc4)[C@]3(C)C2=O)cc1,6.33,"0.13 µM [falling, partial curve, poor fit]",–
Cc1ccc(NC(=O)c2sc(N)nc2-c2ccc([N+](=O)[O-])cc2)cc1C,-26.6,"29.1 µM [falling, single point]",–
Cc1ccc(-c2c(C#N)c(N)nc3c2CCCCCC3)o1,24,–,"0.411 µM [rising, partial curve, poor fit]"
CC(=O)NC(Cc1ccccc1C)C(=O)NC1CCN(C(=O)NCc2ccccc2)CC1 (stereo unspecified),13.3,–,–
Cc1c(Br)c([N+](=O)[O-])nn1CC(=O)NC1CCCCCC1,-19,"18.4 µM [falling, single point]",–
CCN(C(=O)c1ccco1)c1nnc(-c2ccc(OC)cc2)s1,-30,–,"6.51 µM [falling, partial curve]"

SMILES,cell number change [%],AC50 [1],AC50 [2]
C/C(=N\N=C1\NC(=O)CC(C(=O)O)S1)c1ccc(F)cc1 (stereo unspecified),-41.2,"0.184 µM [falling, full curve, poor fit]","16.4 µM [falling, single point]"
C=CCn1c(SCC(=O)Nc2ccccc2)nc2scc(-c3cccs3)c2c1=O,–,"0.146 µM [rising, full curve, poor fit]",–
CCCCCCC(=O)N(O)C1CC(=O)N(c2ccc(C)cc2)C1=O (stereo unspecified),-31.4,"20.6 µM [falling, partial curve]","29.1 µM [falling, single point]"
COCCCNC(=S)N1CCN(S(=O)(=O)c2ccc(OC)cc2)CC1,-0.516,–,–
COC(=O)CCN1CCC(C(N)=O)CC1,–,"0.146 µM [falling, full curve, poor fit]",–
CCc1ccc(C=NC23CN4CN(CN(C4)C2)C3)s1,-141,"29.1 µM [falling, partial curve]","25.9 µM [falling, partial curve]"
CC1CCN(S(=O)(=O)c2ccc(NC(=O)CSc3ncccc3C(=O)O)cc2)CC1,-16.6,"3.66 µM [falling, full curve, poor fit]",–
Cc1nnc(SCC(=O)Nc2ccc3c(c2)COC3=O)n1-c1ccccc1,4.09,"18.4 µM [falling, single point]",–
Cc1cccc(NC(=O)CSc2nc3nc(C)cc(C)n3n2)c1,–,"6.51 µM [falling, single point]","0.206 µM [falling, full curve, poor fit]"
CC(OC(=O)CCN=C1NS(=O)(=O)c2ccccc21)C(=O)Nc1ccc(N(C)C)cc1 (stereo unspecified),-13.1,"0.82 µM [rising, single point]",–
O=C(O)CCC(=O)NCc1c(Cl)cccc1Sc1ccc(Cl)cc1,-38.7,"5.17 µM [falling, full curve]","6.51 µM [falling, full curve, poor fit]"
Cc1ccc(C)c2[nH]c(=O)c(CN(CCN3CCCC3)C(=O)Nc3cccc(Cl)c3)cc12,–,"1.46 µM [rising, partial curve]",–
COc1ccc(S(=O)(=O)N2CCC(C(=O)NCCc3ccc4c(c3)OCO4)CC2)cc1,11.4,"0.164 µM [rising, full curve]",–
Cc1nn(CC(O)c2ccccc2)c(C)c1Br (stereo unspecified),-71,"6.51 µM [falling, single point]","5.8 µM [falling, partial curve]"
Cc1cc(C(=O)CCl)c(C)n1CCc1ccccc1,-12.6,–,–
COC(=O)c1cccc(OC(N)=O)c1,-0.489,"4.11 µM [rising, full curve]",–
Cc1ccc2c(c1)c(C)c(C)n2CC(O)Cn1nnc2ccccc21 (stereo unspecified),-3.14,–,–
CCOc1ncccc1C(=O)Nc1cccc(S(=O)(=O)NC2=NCCC2)c1,29.8,"13 µM [rising, partial curve, poor fit]",–
COc1ccc(-c2nnn(CC(=O)N(CC(=O)NCCC(C)C)c3ccccc3)n2)cc1OC,-0.276,"6.51 µM [falling, single point]",–
Cn1c(=O)[nH]c2c(Cl)nccc21,-5.87,"0.13 µM [falling, full curve, poor fit]",–
